{"source": "paper doi:10.1101/2022.02.23.481653", "binders": {"B1": {"name": "SEPT2-β10 and SEPT2-β11 (wild-type SEPT2 fused to GFP strand β10 or β11) (protein, UniProt Q15019 1-361)", "chain": "MSKQQPTQFINPETPGYVGFANLPNQVHRKSVKKGFEFTLMVVGESGLGKSTLINSLFLTDLYPERVIPGAAEKIERTVQIEASTVEIEERGVKLRLTVVDTPGYGDAINCRDCFKTIISYIDEQFERYLHDESGLNRRHIIDNRVHCCFYFISPFGHGLKPLDVAFMKAIHNKVNIVPVIAKADTLTLKERERLKKRILDEIEEHNIKIYHLPDAESDEDEDFKEQTRLLKASIPFSVVGSNQLIEAKGKKVRGRLYPWGVVEVENPEHNDFLKLRTMLITHMQDLQEVTQDLHYENFRSERLKRGGRKVENEDMNKDQILLEKEAELRRMQEMIARMQAQMQMQMQGGDGDGGALGHHV"}, "B2": {"name": "SEPT2-msfGFP (wild type), Q15019 1-361 (protein)", "chain": "B1 chain"}, "B3": {"name": "SEPT2NCmut-msfGFP (SEPT2 F20D, V27D) (protein, UniProt Q15019 1-361)", "chain": "B1 chain with F20D, V27D"}, "B4": {"name": "SEPT9_i1-β10 and SEPT9_i1-β11 (wild-type SEPT9 isoform 1 fused to GFP strand β10 or β11) (protein, UniProt Q9UHD8-1 1-586)", "chain": "MKKSYSGGTRTSSGRLRRLGDSSGPALKRSFEVEEVETPNSTPPRRVQTPLLRATVASSTQKFQDLGVKNSEPSARHVDSLSQRSPKASLRRVELSGPKAAEPVSRRTELSIDISSKQVENAGAIGPSRFGLKRAEVLGHKTPEPAPRRTEITIVKPQESAHRRMEPPASKVPEVPTAPATDAAPKRVEIQMPKPAEAPTAPSPAQTLENSEPAPVSQLQSRLEPKPQPPVAEATPRSQEATEAAPSCVGDMADTPRDAGLKQAPASRNEKAPVDFGYVGIDSILEQMRRKAMKQGFEFNIMVVGQSGLGKSTLINTLFKSKISRKSVQPTSEERIPKTIEIKSITHDIEEKGVRMKLTVIDTPGFGDHINNENCWQPIMKFINDQYEKYLQEEVNINRKKRIPDTRVHCCLYFIPATGHSLRPLDIEFMKRLSKVVNIVPVIAKADTLTLEERVHFKQRITADLLSNGIDVYPQKEFDEDSEDRLVNEKFREMIPFAVVGSDHEYQVNGKRILGRKTKWGTIEVENTTHCEFAYLRDLLIRTHMQNIKDITSSIHFEAYRVKRLNEGSSAMANGMEEKEPEAPEM"}, "B5": {"name": "SEPT9_i3-β10 and SEPT9_i3-β11 (wild-type SEPT9 isoform 3 fused to GFP strand β10 or β11) (protein, UniProt Q9UHD8-2 1-568)", "chain": "MERDRISALKRSFEVEEVETPNSTPPRRVQTPLLRATVASSTQKFQDLGVKNSEPSARHVDSLSQRSPKASLRRVELSGPKAAEPVSRRTELSIDISSKQVENAGAIGPSRFGLKRAEVLGHKTPEPAPRRTEITIVKPQESAHRRMEPPASKVPEVPTAPATDAAPKRVEIQMPKPAEAPTAPSPAQTLENSEPAPVSQLQSRLEPKPQPPVAEATPRSQEATEAAPSCVGDMADTPRDAGLKQAPASRNEKAPVDFGYVGIDSILEQMRRKAMKQGFEFNIMVVGQSGLGKSTLINTLFKSKISRKSVQPTSEERIPKTIEIKSITHDIEEKGVRMKLTVIDTPGFGDHINNENCWQPIMKFINDQYEKYLQEEVNINRKKRIPDTRVHCCLYFIPATGHSLRPLDIEFMKRLSKVVNIVPVIAKADTLTLEERVHFKQRITADLLSNGIDVYPQKEFDEDSEDRLVNEKFREMIPFAVVGSDHEYQVNGKRILGRKTKWGTIEVENTTHCEFAYLRDLLIRTHMQNIKDITSSIHFEAYRVKRLNEGSSAMANGMEEKEPEAPEM"}, "B6": {"name": "β10-SEPT7 and β11-SEPT7 (wild-type SEPT7 fused to GFP strand β10 or β11), Q16181 1-437 (protein)", "chain": "MSVSARSAAAEERSVNSSTMVAQQKNLEGYVGFANLPNQVYRKSVKRGFEFTLMVVGESGLGKSTLINSLFLTDLYSPEYPGPSHRIKKTVQVEQSKVLIKEGGVQLLLTIVDTPGFGDAVDNSNCWQPVIDYIDSKFEDYLNAESRVNRRQMPDNRVQCCLYFIAPSGHGLKPLDIEFMKRLHEKVNIIPLIAKADTLTPEECQQFKKQIMKEIQEHKIKIYEFPETDDEEENKLVKKIKDRLPLAVVGSNTIIEVNGKRVRGRQYPWGVAEVENGEHCDFTILRNMLIRTHMQDLKDVTNNVHYENYRSRKLAAVTYNGVDNNKNKGQLTKSPLAQMEEERREHVAKMKKMEMEMEQVFEMKVKEKVQKLKDSEAELQRRHEQMKKNLEAQHKELEEKRRQFEDEKANWEAQQRILEQQNSSRTLEKNKKKGKIF"}, "B7": {"name": "msfGFP-SEPT7Gmut1 (SEPT7 W269A, H279D) (protein, UniProt Q16181 1-437)", "chain": "B6 chain with W269A, H279D"}}, "key": {"[1]": {"target": "SEPT2-β10 and SEPT2-β11 (wild-type SEPT2 fused to GFP strand β10 or β11) (human) (UniProt Q15019)", "experiment": "split reporter"}, "[2]": {"target": "T1, SEPT7 (endogenous, U2OS) (human (endogenous in U2OS)), Q16181", "T1 chain": "B6 chain", "experiment": "native gel or EMSA", "conditions": "remark: other sources report otherwise"}, "[3]": {"target": "T2, SEPT7 (endogenous, U2OS) (human (endogenous in U2OS)) (UniProt Q16181)", "T2 sequence": "B6 chain", "experiment": "native gel or EMSA"}, "[4]": {"target": "T3, β10-SEPT7Gmut2 and β11-SEPT7Gmut2 (SEPT7 H279D) (human) (UniProt Q16181)", "T3 sequence": "B6 chain with H279D", "experiment": "split reporter"}, "[5]": {"target": "T4, β10-SEPT7 and β11-SEPT7 (wild-type SEPT7 fused to GFP strand β10 or β11) (human) (UniProt Q16181)", "T4 sequence": "B6 chain", "experiment": "split reporter"}, "[6]": {"target": "T5, β10-SEPT7 and β11-SEPT7 (wild-type SEPT7 fused to GFP strand β10 or β11) (human), Q16181", "T5 chain": "B6 chain", "experiment": "split reporter", "conditions": "remark: other sources report otherwise"}, "[7]": {"target": "T6, msfGFP-SEPT7Gmut1 (SEPT7 W269A, H279D) (human) (UniProt Q16181)", "T6 sequence": "B6 chain with W269A, H279D", "experiment": "native gel or EMSA"}}, "note": "Residue numbers refer to the chain shown, from its start. Numbers in names are those of the source. Results are given in words; binding and its absence hold for the method and conditions named. For part of these data: Binding seen in cells or lysates may run through a third protein. Some entries that bind do so weakly or less than the wild type. Where a sequence is shown, tags or fusion partners need not be part of it.", "data": [{"binder": "B1", "values": [{"measurement": "binding", "setting": "[1]", "value": "binds"}]}, {"binder": "B2", "values": [{"measurement": "binding", "setting": "[2]", "value": "binds"}]}, {"binder": "B3", "values": [{"measurement": "binding", "setting": "[3]", "value": "binds"}]}, {"binder": "B4", "values": [{"measurement": "binding", "setting": "[4]", "value": "binds"}, {"measurement": "binding", "setting": "[5]", "value": "binds"}]}, {"binder": "B5", "values": [{"measurement": "binding", "setting": "[4]", "value": "binds"}, {"measurement": "binding", "setting": "[5]", "value": "binds"}]}, {"binder": "B6", "values": [{"measurement": "binding", "setting": "[6]", "value": "binds"}]}, {"binder": "B7", "values": [{"measurement": "binding", "setting": "[7]", "value": "no binding"}]}]}
